Assay results published in PMC7862700.
Only a part is listed here, and it is no random draw. At the low end of the ranking the order means little.

By UniProt entry, the sequences of proteins in these tests, tags left out. Where a name states a change or a piece, a line headed by the entry shows the natural chain unless it says otherwise.
UniProt O43186: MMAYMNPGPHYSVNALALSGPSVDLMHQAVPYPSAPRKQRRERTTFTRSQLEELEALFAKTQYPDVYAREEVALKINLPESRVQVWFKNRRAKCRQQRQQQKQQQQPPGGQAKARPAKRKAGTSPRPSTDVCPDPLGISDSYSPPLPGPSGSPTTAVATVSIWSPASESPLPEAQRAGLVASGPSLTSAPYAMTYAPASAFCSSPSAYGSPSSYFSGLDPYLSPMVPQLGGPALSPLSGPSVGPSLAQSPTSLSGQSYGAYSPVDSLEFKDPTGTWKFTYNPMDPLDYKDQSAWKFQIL

Target: CRX (UniProt O43186)
Assay: DAPPL (digital affinity profiling via proximity ligation, sequencing)
Settings: 10 mM Tris-HCl pH 7.5, 50 mM NaCl, 1 mM DTT, 4% glycerol, room temperature, 30 min; GST-TFs on glutathione beads, 16-mer random dsDNA library, 0.1% …; high values mean tight binding; double strand, one strand shown; scale: fold enrichment (6-mer frequency, TF over GST control)

Sequence | binding signal
GCATTC | 0.913
TCCTCA | 1.4
GCTTCA | 1.1
CATCTT | 1.33
CTTGAC | 0.978
TCGCAC | 0.886
TTGCAT | 1.33
CCATTC | 0.957
GTTCTT | 1.12
GAAGCA | 0.826
TGTTTG | 1.08
GTACTT | 1.6
ATCCGC | 2.06
CTCAGG | 0.984
TGTATC | 1.15
GTCTCA | 1.12
TAGTAC | 1.29
TGGTAC | 0.88
CTTAGA | 1.69
CATCCG | 0.911
ACTCGC | 0.955
AACGCT | 1.17

Sequence | binding signal
CCGGCA | 0.808
GCCGAC | 0.91
AGGAAA | 0.822
TCGCAA | 1.05
TATAAC | 1.43
AACAGC | 0.962
CGTCTA | 1.28
TGCGCG | 0.964
TTCCCC | 1.44
CCGCCC | 0.913
TTGAAT | 1.17
ATCTTT | 1.76
AATGCA | 1.14
CTATCT | 1.4
TCTTCT | 1.59
ATGTCA | 0.835
AAGAAT | 1.43
AAGTGG | 0.959
GTATGC | 0.826
ACCACC | 0.831
CGCGTC | 0.858
GCAAAA | 0.974

Sequence | binding signal
CCCTAC | 1.19
CTCGAT | 1.48
GATACG | 0.912
CTCGCC | 0.986
GGGCTT | 1.77
TAACTC | 1.58
AACATA | 1.3
TCTAAA | 1.6
CCCGCC | 1.21
ACGCTG | 0.954
CTCGTG | 0.922
AACACA | 1.1
GCTATA | 1.23
CCCGTT | 1.02
CCATAT | 1.09
CCAATG | 0.847
AATAGA | 1.15
ACATCA | 0.909
GCCTTC | 1.2
CGACGA | 0.976
ATCTCC | 2.01

Single entries from above:
Entry of TCGCAC under binding signal: 0.886
Entry of GCTTCA under binding signal: 1.1
Entry of CCGGCA under binding signal: 0.808
